Source: paper doi:10.1101/2021.09.19.460961
These are yes or no findings as the source states them, for the method shown. Binding seen in cells or lysates may run through a third protein. Some results given as binding are weak or reduced against the parent protein; the word gives no strength. Sequences can lack the tags named with a protein.

The chains behind the UniProt entries cited, without tags or fusion partners.
UniProt Q13838: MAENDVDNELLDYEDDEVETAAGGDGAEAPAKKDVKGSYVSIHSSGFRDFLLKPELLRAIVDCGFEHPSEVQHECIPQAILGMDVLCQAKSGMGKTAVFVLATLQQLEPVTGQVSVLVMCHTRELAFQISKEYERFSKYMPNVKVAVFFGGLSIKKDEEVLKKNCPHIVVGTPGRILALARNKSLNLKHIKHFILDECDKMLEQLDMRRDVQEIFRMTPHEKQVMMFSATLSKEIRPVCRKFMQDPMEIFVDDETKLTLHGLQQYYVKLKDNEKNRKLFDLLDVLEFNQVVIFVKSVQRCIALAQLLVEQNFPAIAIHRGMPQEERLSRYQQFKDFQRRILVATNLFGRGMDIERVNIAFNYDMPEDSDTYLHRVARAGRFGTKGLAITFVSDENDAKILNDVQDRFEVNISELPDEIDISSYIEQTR

T1: FLAG-PGC-1α wild type (WT) (human) (UniProt Q9UBK2)
T1 sequence: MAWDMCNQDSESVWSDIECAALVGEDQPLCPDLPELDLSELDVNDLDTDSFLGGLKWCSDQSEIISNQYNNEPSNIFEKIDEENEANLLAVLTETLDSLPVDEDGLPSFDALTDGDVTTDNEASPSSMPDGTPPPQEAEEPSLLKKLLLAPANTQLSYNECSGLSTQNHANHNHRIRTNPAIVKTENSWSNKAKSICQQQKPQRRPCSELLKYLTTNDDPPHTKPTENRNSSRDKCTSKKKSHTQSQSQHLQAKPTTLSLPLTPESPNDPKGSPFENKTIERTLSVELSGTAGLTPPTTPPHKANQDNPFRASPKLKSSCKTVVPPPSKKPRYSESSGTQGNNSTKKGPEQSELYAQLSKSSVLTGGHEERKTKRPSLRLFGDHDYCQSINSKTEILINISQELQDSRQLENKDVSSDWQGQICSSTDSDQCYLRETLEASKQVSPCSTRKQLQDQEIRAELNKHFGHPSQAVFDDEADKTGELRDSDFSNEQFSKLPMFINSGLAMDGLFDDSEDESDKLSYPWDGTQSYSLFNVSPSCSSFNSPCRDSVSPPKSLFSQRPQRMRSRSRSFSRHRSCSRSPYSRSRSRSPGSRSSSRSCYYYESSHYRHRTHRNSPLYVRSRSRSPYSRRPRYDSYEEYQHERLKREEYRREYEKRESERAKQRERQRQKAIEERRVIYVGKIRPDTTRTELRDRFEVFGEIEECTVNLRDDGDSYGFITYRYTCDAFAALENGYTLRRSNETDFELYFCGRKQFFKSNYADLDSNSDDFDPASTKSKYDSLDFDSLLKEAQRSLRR

T2: FLAG-PGC-1α ΔRS (human) (UniProt Q9UBK2)
T2 sequence: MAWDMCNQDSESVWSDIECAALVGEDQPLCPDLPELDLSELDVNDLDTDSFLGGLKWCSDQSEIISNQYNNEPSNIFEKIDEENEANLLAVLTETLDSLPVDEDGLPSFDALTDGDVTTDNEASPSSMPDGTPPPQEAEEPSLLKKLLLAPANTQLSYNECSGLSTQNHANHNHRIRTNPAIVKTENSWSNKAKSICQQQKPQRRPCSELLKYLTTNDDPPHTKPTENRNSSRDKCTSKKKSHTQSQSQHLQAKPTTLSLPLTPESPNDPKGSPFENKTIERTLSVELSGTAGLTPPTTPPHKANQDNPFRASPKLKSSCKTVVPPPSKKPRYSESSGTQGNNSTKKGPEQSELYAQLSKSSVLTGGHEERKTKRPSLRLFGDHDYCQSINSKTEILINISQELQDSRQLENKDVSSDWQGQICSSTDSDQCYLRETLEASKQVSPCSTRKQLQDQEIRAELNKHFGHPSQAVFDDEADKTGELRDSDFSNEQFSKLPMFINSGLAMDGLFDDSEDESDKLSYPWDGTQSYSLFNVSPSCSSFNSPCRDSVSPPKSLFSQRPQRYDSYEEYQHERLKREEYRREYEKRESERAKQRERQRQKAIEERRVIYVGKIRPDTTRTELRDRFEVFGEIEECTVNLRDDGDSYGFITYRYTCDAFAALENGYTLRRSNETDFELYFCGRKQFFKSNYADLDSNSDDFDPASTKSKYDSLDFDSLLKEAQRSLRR

T3: GST-NXF1:p15 (UniProt Q9UBU9)
T3 sequence 1: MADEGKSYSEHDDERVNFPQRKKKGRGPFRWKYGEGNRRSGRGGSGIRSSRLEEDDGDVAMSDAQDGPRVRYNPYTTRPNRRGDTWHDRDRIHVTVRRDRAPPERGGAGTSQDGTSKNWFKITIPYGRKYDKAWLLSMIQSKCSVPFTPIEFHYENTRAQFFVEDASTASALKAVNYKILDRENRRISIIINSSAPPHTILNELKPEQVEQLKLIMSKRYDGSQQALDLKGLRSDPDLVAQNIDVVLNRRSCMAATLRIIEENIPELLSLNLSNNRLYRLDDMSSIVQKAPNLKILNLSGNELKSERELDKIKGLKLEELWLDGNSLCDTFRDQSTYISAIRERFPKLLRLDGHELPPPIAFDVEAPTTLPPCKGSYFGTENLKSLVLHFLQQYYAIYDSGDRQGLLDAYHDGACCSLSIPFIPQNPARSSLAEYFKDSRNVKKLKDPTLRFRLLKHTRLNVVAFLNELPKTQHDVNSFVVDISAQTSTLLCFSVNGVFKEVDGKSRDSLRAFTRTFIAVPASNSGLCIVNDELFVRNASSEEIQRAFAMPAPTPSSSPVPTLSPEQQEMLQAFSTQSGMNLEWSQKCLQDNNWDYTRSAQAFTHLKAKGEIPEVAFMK
T3 sequence 2: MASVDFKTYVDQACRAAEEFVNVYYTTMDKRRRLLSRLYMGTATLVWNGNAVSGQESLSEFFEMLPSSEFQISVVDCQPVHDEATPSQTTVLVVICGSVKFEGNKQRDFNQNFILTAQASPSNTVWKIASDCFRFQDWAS


Legend:
[1] = target: T1, FLAG-PGC-1α wild type (WT) (human); experiment: co-IP
FLAG-PGC-1α ΔRS (human) = target: T2, FLAG-PGC-1α ΔRS (human); experiment: co-IP
GST-NXF1:p15 = target: T3, GST-NXF1:p15; experiment: pull-down

| binding [1] | binding (FLAG-PGC-1α ΔRS (human)) | binding (GST-NXF1:p15) | Molecule |
| --- | --- | --- | --- |
| binds | binds |  | UAP56 (endogenous TREX subunit) (from UniProt Q13838 1-428) |
| binds | binds |  | THOC1 (endogenous TREX subunit) (protein, UniProt Q96FV9 1-657) MSPTPPLFSLPEARTRFTKSTREALNNKNIKPLLSTFSQVPGSENEKKCTLDQAFRGILEEEIINHSSCENVLAIISLAIGGVTEGICTASTPFVLLGDVLDCLPLDQCDTIFTFVEKNVATWKSNTFYSAGKNYLLRMCNDLLRRLSKSQNTVFCGRIQLFLARLFPLSEKSGLNLQSQFNLENVTVFNTNEQESTLGQKHTEDREEGMDVEEGEMGDEEAPTTCSIPIDYNLYRKFWSLQDYFRNPVQCYEKISWKTFLKYSEEVLAVFKSYKLDDTQASRKKMEELKTGGEHVYFAKFLTSEKLMDLQLSDSNFRRHILLQYLILFQYLKGQVKFKSSNYVLTDEQSLWIEDTTKSVYQLLSENPPDGERFSKMVEHILNTEENWNSWKNEGCPSFVKERTSDTKPTRIIRKRTAPEDFLGKGPTKKILMGNEELTRLWNLCPDNMEACKSETREHMPTLEEFFEEAIEQADPENMVENEYKAVNNSNYGWRALRLLARRSPHFFQPTNQQFKSLPEYLENMVIKLAKELPPPSEEIKTGEDEDEEDNDALLKENESPDVRRDKPVTGEQIEVFANKLGEQWKILAPYLEMKDSEIRQIECDSEDMKMRAKQLLVAWQDQEGVHATPENLINALNKSGLSDLAESLTNDNETNS |

Second part, the molecule before the results:

| Molecule | binding [1] | binding (FLAG-PGC-1α ΔRS (human)) | binding (GST-NXF1:p15) |
| --- | --- | --- | --- |
| 35S-radiolabelled PGC-1α RS domain (aa565-633) (domain or fragment, UniProt Q9UBK2 565-633, 35S-methionine radiolabel) MRSRSRSFSRHRSCSRSPYSRSRSRSPGSRSSSRSCYYYESSHYRHRTHRNSPLYVRSRSRSPYSRRPR |  |  | binds |
| GB1-6His-tagged PGC-1α RS domain (aa565-633) (domain or fragment, UniProt Q9UBK2 565-633) MRSRSRSFSRHRSCSRSPYSRSRSRSPGSRSSSRSCYYYESSHYRHRTHRNSPLYVRSRSRSPYSRRPR |  |  | binds |
